# Library screening results

By UniProt entry, the sequences of proteins in these tests, tags left out.
UniProt E9BF75, entry or part of it: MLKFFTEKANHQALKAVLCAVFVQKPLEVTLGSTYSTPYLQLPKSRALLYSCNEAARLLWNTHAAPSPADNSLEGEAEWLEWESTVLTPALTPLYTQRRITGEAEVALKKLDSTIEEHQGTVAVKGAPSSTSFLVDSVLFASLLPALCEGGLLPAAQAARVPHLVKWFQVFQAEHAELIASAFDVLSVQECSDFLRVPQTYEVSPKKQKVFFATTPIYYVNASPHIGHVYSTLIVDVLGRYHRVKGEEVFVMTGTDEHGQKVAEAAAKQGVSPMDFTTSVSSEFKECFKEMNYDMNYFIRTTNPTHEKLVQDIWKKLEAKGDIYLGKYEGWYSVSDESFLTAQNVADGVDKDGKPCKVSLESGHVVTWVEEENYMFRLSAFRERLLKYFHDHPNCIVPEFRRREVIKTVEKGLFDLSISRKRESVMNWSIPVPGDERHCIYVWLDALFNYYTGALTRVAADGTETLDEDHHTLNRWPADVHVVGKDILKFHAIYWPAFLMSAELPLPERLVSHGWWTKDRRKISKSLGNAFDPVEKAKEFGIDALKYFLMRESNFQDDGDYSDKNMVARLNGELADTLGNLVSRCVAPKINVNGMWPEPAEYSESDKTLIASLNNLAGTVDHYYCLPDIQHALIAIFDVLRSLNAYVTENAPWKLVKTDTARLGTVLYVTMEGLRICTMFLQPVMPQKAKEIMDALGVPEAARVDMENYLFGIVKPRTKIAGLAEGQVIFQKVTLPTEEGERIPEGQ

The values are deposited in ChEMBL (CHEMBL3988442, “University of Dundee, Small-Polar-MMV Screening Library” (2021)).

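Primary screen of methionyl-tRNA synthetase; the read-out is not stated. Target: Methionyl-tRNA synthetase (putative), Leishmania donovani (UniProt E9BF75). The test concentration is not given. Values are per cent inhibition. About 68,000 compounds were tested under these conditions; 0.035% (about 24) showed 50% or more at least once.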

Results are percentages, as filed.
The controls that fix the scale are not given in the record; negative values are as filed.
The compounds are a random part of those screened.

SMILES | Inhibition
Cc1nc(CN(C)C(=O)NC(C)c2ccc3c(c2)OCCO3)cs1 (centres undefined) | 7.833
CCn1cc(NC(=O)NC2CCCc3c2cnn3CCO)cn1 (centres undefined) | 12.68
Cn1cc(I)c(C(=O)NC2CCCC2)n1 | -3.867
O=S(=O)(C1CC1)N1CCO[C@H]2[C@H](Oc3cccnc3)CC[C@@H]21 | 17.5
Cc1ccc(-c2nc(CC(=O)NCC3CCCOC3)cs2)o1 (centres undefined) | 11.06
O=C(NCCOc1ncc(Cl)cc1Cl)NCc1ccncc1 | 13.04
CN1CCN(c2ccccc2NC(=O)c2ccco2)CC1 | 14.03
Cc1c(C(=O)NCC(C)(C)S(C)(=O)=O)cccc1-c1ccccn1 | 14.86
CCn1ccnc1CN1CCCN(C(=O)c2cc[nH]n2)CC1 | 17.89
O=C(c1ccc(Br)s1)N1CCN(Cc2ccc(OC(F)(F)F)cc2)CC1 | 6.404
COCCN1CCn2c(CN(C)C(C)C)cnc2C1 | 11.26
CC(C)c1nc(CNCC2CCCN2c2cccnn2)cs1 (centres undefined) | 19.67
Cn1cc(C(=O)Nc2cccc(CCN3CCCC3)c2)ccc1=O | 10.47
COCCN1CCC2(CCN(C(=O)c3ccc(F)cc3)CC2)C1=O | 4.167
CC(=O)NCCNC(=O)CN1CCCC(Cn2cncn2)C1 (centres undefined) | 16.47
Cc1n[nH]cc1CNc1ccc2c(c1)N(C(=O)OC(C)(C)C)CCC2 | 11.02
N#Cc1c(N)nc2c(c1-c1c[nH]nc1C1CCCCC1)CNCC2 | 12.04
CS(=O)(=O)N(Cc1ccon1)c1ccc2c(c1)OCO2 | 6.933
Cc1nn(-c2ccccc2)nc1C(=O)NCC(c1ccco1)N(C)C (centres undefined) | 6.597
Cc1ccnc(C(NC(=O)c2sc(C)nc2C)C2CC2)n1 (centres undefined) | 9.42
CN1CCN([C@@H]2CN(C(=O)Cc3ccsc3)[C@@H]3CCCO[C@H]23)CC1 | 18.98
Cc1nnc([C@H]2C[C@H]3OCC[C@H]3N(S(=O)(=O)N(C)C)C2)o1 | 18.12
Cc1cccc(C(C)CNS(=O)(=O)CCCC#N)c1 (centres undefined) | 5.645
CNC(=O)c1cc(C2CCCNC2)n[nH]1 (centres undefined) | -0.6329
O=C([C@@H]1CN(Cc2nccs2)C[C@H]2OCC[C@H]21)N1CCOCC1 | 17.58
Cn1cc(CCNC(=O)NCc2ccc3c(c2)OCCO3)cn1 | 14.92
Cc1nc(CN2CCC(Oc3ccc(F)cc3C)(C(=O)O)CC2)co1 | 2.74
COCc1ccc(C(=O)N2CCN(CC=C(C)C)[C@@H]3CS(=O)(=O)C[C@@H]32)o1 | 5.455
COc1ccccc1C1(CNc2cn[nH]c(=O)c2Cl)CC1 | 16.43
COc1cc(O)ccc1CN1CCN(C2CCc3ccccc3C2)CC1 (centres undefined) | 21.67
CC1Cc2ccccc2N1Cc1occc1C(=O)O (centres undefined) | 7.801
C/N=C1/c2cc3cc(OC)ccc3n2CCN1Cc1ccccc1 | 29.58
CN1CCC2(CCN(S(=O)(=O)c3ccc(-c4cnco4)s3)CC2)C1 | 30.6
CCc1ncncc1C(=O)N1CCN(Cc2ccsc2)CC1 | 3.429
CN(C)C(=O)CN1CCn2cc(Cn3cccn3)nc2C1 | -0.8646
CCC(NC(=O)c1ccc(COC)o1)c1nc(C(F)(F)F)cs1 (centres undefined) | 5.759
Cn1ccnc1C1c2nc[nH]c2CCN1Cc1cccnc1 (centres undefined) | 12.2
CC(C)(O)CNC(=O)c1sccc1Br | 13.12
Cc1cccn2cc(CN3CCCC(c4noc(C5CC5)n4)C3)nc12 (centres undefined) | 19.5
COc1ccc(CNC[C@H]2COCc3nc4cc(F)ccc4n32)cn1 | 4.945
CN(C)C(C(=O)NCCSc1ncn[nH]1)c1cccc(F)c1 (centres undefined) | 8.027
CN(CC(N)=O)S(=O)(=O)c1ccc(F)cc1Cl | 23.5
CCc1nnc2n1CCN(C(=O)c1cn(-c3ccccc3)nn1)C2 | 15.95
COc1ccc(-n2ncc(C(C)NC3Cc4ccccc4C3)c2C)cc1 (centres undefined) | 5.459
CCN1CCN(C2CCN(Cc3noc(C)n3)CC2)C1=O | 12.68
Cc1cc(C(=O)NC2CCN(CC(N)=O)CC2)nn1C(C)(C)C | 14.36
CCC1=NC2(CCC(C(=O)Nc3ccc(F)cc3)CC2)C(=O)N1C (centres undefined) | 13.11
CCc1ccc(C(NC(=O)CCS(C)(=O)=O)C(C)(C)C)o1 (centres undefined) | 16.48
Cc1ccc(CN2CCCC3(COCCN(Cc4c[nH]nn4)C3)C2)o1 (centres undefined) | 15.48
NC(=O)C1CCN(C(=O)CCCc2nnc(-c3ccccc3)o2)CC1 | 12.05
CN(C)S(=O)(=O)N1C[C@H]2CCC[C@@]2(COCc2ccccn2)C1 | 2.094
CCN1CCC(CNC(=O)Nc2cccnc2OC)CC1 | 12.24
CCc1c(NCc2ccncc2)cnn1CC(C)C | 1.63
Cc1nnsc1CNC(=O)CSCc1ccccc1Cl | 0.5602
CC(C)(C)c1cn2c(n1)C(CNCc1ccccn1)CCC2 (centres undefined) | 13.07
COc1cc(C)sc1C(=O)NCCNc1ccccc1 | 2.989
CN(C)CC1(O)CCCN(Cc2ccccc2OCC(=O)N(C)C)C1 (centres undefined) | 11.19
Cc1cc(C(F)(F)F)nc(CNC(=O)CCCN2CCCCC2)n1 | 3.559
CCCNC(=O)c1sccc1N(C)S(=O)(=O)c1ccc(Cl)cc1 | 0.7042

The last 4 entries again:

COc1cc(C)sc1C(=O)NCCNc1ccccc1 read 2.989%.
CN(C)CC1(O)CCCN(Cc2ccccc2OCC(=O)N(C)C)C1 (centres undefined) read 11.19%.
Cc1cc(C(F)(F)F)nc(CNC(=O)CCCN2CCCCC2)n1 read 3.559%.
CCCNC(=O)c1sccc1N(C)S(=O)(=O)c1ccc(Cl)cc1 read 0.7042%.